Measurements from “University of Dundee, Small-Polar-MMV Screening Library” (2021), ChEMBL document CHEMBL3988442.

By UniProt entry, the sequences of proteins in these tests, tags left out.
UniProt P9WPC5, whole entry: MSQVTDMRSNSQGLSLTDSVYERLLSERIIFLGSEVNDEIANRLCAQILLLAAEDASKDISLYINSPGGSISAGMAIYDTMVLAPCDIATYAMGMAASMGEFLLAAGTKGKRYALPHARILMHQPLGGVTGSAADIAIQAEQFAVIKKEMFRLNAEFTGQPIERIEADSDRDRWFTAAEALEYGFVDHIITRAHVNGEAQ
UniProt P9WPC3, whole entry partner: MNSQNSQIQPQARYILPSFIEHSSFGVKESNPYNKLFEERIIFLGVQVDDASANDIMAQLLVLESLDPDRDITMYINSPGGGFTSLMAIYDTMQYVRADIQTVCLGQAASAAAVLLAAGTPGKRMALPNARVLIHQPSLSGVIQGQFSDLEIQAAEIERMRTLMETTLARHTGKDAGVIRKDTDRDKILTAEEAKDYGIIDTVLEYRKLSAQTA
UniProt P9WFT3, whole entry: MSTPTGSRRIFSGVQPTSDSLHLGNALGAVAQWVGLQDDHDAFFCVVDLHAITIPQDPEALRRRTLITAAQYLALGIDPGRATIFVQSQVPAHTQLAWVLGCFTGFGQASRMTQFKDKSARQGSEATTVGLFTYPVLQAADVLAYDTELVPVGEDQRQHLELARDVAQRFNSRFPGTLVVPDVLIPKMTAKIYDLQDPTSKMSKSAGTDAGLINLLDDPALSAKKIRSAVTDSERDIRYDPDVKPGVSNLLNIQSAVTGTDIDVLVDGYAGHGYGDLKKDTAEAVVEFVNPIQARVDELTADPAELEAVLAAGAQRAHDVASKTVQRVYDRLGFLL
UniProt P9WNZ1, whole entry: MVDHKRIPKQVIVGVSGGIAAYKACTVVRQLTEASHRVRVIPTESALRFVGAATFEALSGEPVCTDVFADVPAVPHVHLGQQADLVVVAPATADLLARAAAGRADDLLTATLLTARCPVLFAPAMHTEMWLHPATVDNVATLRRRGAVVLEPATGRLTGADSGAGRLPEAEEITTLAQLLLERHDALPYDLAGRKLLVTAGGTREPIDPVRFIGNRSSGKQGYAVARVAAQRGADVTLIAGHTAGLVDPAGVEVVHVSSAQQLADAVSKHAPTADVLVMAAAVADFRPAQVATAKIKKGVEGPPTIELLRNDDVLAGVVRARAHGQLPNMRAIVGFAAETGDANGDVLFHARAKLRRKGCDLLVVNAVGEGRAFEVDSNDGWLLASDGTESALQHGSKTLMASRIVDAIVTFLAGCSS

ClpP1P2: 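Protease assay of ClpP1P2, read by the AMC dye that it sets free. Target: ClpP1P2, Mycobacterium tuberculosis (UniProt P9WPC5 and UniProt P9WPC3). Compounds at 50 µM. Higher reads as stronger inhibition, judged from the few compounds that gave an IC50. Most other retested compounds had strongly negative values. Of about 69,000 compounds tested this way, about 10 (0.015%) reached 50% or more in at least one test.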
Toxoplasma: 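Assay of Toxoplasma gondii numbers, read through their beta-galactosidase reporter with a colour substrate. Compounds at 10 µM. Higher reads as fewer parasites (inferred from which compounds were picked for retests). About 67,000 compounds were tested under these conditions; 0.38% (about 260) showed 50% or more at least once.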
MtTrpRS: 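Enzyme assay of tryptophanyl-tRNA synthetase; the read-out is not stated. Target: Tryptophan-tRNA ligase, Mycobacterium tuberculosis (UniProt P9WFT3). Compounds at 10 µM. Higher most likely means stronger inhibition; the record gives no direction and few retests gave an IC50. About 65,000 compounds were tested under these conditions; 0.098% (about 64) showed 50% or more at least once.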
CoaBC: 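Coenzyme A biosynthesis protein CoaBC, Mycobacterium tuberculosis (UniProt P9WNZ1). Enzyme assay of CoaBC with a phosphate dye (Biomol Green) read at 650 nm. Tested at 30 µM. Direction is inferred from only a few compounds that gave an IC50; most scored high, so higher reads as stronger inhibition. Most strong results did not repeat in a second test. Size under these conditions: about 67,000 compounds, about 40 of them at 50% or above in at least one test.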

Values are the deposited “Percent Effect”, in %. The record does not define 0% and 100%; most values in the screen are far below 50% and negative numbers occur (in some assays of this library far below -100). This is an unselected part of the compounds tested.

{"compound": "CCS(=O)(=O)c1ccc(N2CCC(N)CC2)cc1", "ClpP1P2": -5.117, "Toxoplasma": 1.403, "MtTrpRS": 3.597, "CoaBC": 0.1248}
{"compound": "Cc1ccccc1CC(=O)N1CCc2c(ncnc2N2CCOCC2)C1", "ClpP1P2": -3.26, "Toxoplasma": -0.4908, "MtTrpRS": 25.39, "CoaBC": 10.45}
{"compound": "[H][C@]12CNC[C@@]1(C(=O)NCCOc1ccccc1)CN(S(C)(=O)=O)C2", "Toxoplasma": -2.133}
{"compound": "c1cnn(CC2CN(Cc3nnc(C4CC4)o3)CCO2)c1", "stereo": "stereo unspecified", "ClpP1P2": -14.5, "Toxoplasma": 5.797, "MtTrpRS": 5.796, "CoaBC": 6.003}
{"compound": "CC(C(=O)Nc1sccc1C(N)=O)N(C)CCOc1ccccc1", "stereo": "stereo unspecified", "ClpP1P2": -5.195, "Toxoplasma": 66.89, "MtTrpRS": 1.634, "CoaBC": 0.2545}
{"compound": "CN(C(=O)Nc1nncs1)C1CCN(c2ccccc2Cl)C1=O", "stereo": "stereo unspecified", "ClpP1P2": 6.442, "Toxoplasma": -4.074, "MtTrpRS": 7.886, "CoaBC": 1.646}
{"compound": "O=C(NCCNc1cnccn1)N1CCCCCC1", "ClpP1P2": -27.68, "Toxoplasma": 9.625, "MtTrpRS": -2.603, "CoaBC": 7.081}
{"compound": "CC1=C[C@@H](CNS(C)(=O)=O)[C@H](C(C)C)C[C@H]1CC(=O)NCCN(C)C", "ClpP1P2": -8.509, "Toxoplasma": -8.16, "MtTrpRS": -2.184, "CoaBC": -5.192}
{"compound": "CCn1ccnc1CN1CCCN(C(=O)C2(C#N)CCCCC2)CC1", "ClpP1P2": -3.702, "Toxoplasma": 3.02, "MtTrpRS": 0.7064}
{"compound": "Cc1n[nH]c(C)c1C1CCCN1C(=O)NC(C)(C)C", "stereo": "stereo unspecified", "ClpP1P2": -11.18, "Toxoplasma": -32.75, "MtTrpRS": 0.8158, "CoaBC": -1.392}
{"compound": "O=C(O)C(F)(F)F.O=C(O)C(F)(F)F.O=C(O)C(F)(F)F.c1ccc(CO[C@@H]2CO[C@@]3(CCN(Cc4ccccn4)C3)C2)nc1", "Toxoplasma": 0.5977}
{"compound": "Cc1nc(CN2CCCC2c2nc(C(C)C)no2)cs1", "stereo": "stereo unspecified", "ClpP1P2": -4.061, "Toxoplasma": -1.163, "MtTrpRS": -3.412, "CoaBC": 5.907}
{"compound": "CNc1nccnc1C1CN(Cc2ccc(OCC(=O)O)cc2)CCO1", "stereo": "stereo unspecified", "ClpP1P2": 6.424, "Toxoplasma": -3.101, "MtTrpRS": 3.981, "CoaBC": 14.45}
{"compound": "[H][C@@]12C[C@H](c3nc(C)no3)CN(Cc3ccncc3)[C@]1([H])CCO2", "Toxoplasma": -13.25}
{"compound": "CC(C)C1SCC(=O)Nc2c1cnn2-c1ccc(Cl)cc1F", "stereo": "stereo unspecified", "ClpP1P2": -5.501, "MtTrpRS": -1.286, "CoaBC": -2.552}
{"compound": "O=C(NCCCNCC1CNc2ccnn2C1)c1ccccc1", "stereo": "stereo unspecified", "ClpP1P2": -12.05, "Toxoplasma": -2.077, "MtTrpRS": -3.483, "CoaBC": -45.84}
{"compound": "CCCC1CCCN(C(=O)CCn2cccn2)CC1", "stereo": "stereo unspecified", "ClpP1P2": -16.05, "Toxoplasma": -6.183, "MtTrpRS": 22.45, "CoaBC": 10.59}

The first 2 entries again:

Compound,ClpP1P2,Toxoplasma,MtTrpRS,CoaBC
CCS(=O)(=O)c1ccc(N2CCC(N)CC2)cc1,-5.117,1.403,3.597,0.1248
Cc1ccccc1CC(=O)N1CCc2c(ncnc2N2CCOCC2)C1,-3.26,-0.4908,25.39,10.45